Reference: article PMC6971923
Results are given in words; binding and its absence hold for the method and conditions named. In cells and extracts the contact can be indirect. Here binding means that the protein was enriched with, or labelled near, the bait; the list need not be complete.

B1: myosin alkali light chain (protein, UniProt P06742 1-155)
chain: MADVPKREVENVEFVFEVMGSPGEGIDAVDLGDALRALNLNPTLALIEKLGGTKKRNEKKIKLDEFLPIYSQVKKEKEQGCYEDFIECLKLYDKEENGTMLLAELQHALLALGESLDDEQVETLFADCMDPEDDEGFIPYSQFVQRLMSDPVVFD
B2: gelsonin (protein, UniProt Q07171 29-798)
chain: GTLNARPAFPVQSGEIQPSGQNSKQAARRVMHPSFANAGRTPGLEIWRIENFEPVIYPKTNYGKFYTGDSFIVLNTIENKKDKKLSWDVHFWLGLETSTDEAGAAAILTVQLDDLLNGGPVQHREVQDHESQLFLSYFKNGIRYEQGGVGTGFKHVETNAQGETRLFQVKGKRNVRVRQVNLSVSSMNTGDCFILDAGSDIYVYVGSQAKRVEKLKAISAANQIRDQDHNGRARVQIVDDFSTDADKQHFFDVLGSGSADQVPDESTADEDSAFERTDAAAVSLYKVSDASGKLKVDIIGQKPLTQAMLDTRECFILDTGSGIFVWVGKGATQKEKTDAMAKAQEFLRTKKYPAWTQIHRIVEGSESAPFKQYFDTWRDAGMSHSRLIRSALGIGSDELLNDDEIDSVVTQLKKSGGRAFGFMPDHGQNVIETITQYVAKPGSDEIVVSTVPFDEKLPLLGFASYVLTYNYEANNGDTGSLTYVWHGVKASAAARKRAFEEGLVGSKDGLLVQTNQGHEPRHFYKIFKGKLLTSFTALPVTAQLFRIRGTVESDVHASEVAADSSSLASSDAFVLHSGKSHKIYIWNGLGASAFEKQAAVDRFSDYWDDVELEQVEEGAEPDEFWEELNGEGQYDRSLGDDGAPLLESRLFHCHLSSGGFLKVEEVAQYEQEDLDSDDIMLLDAGDEIYLWVGYGVSEEENGKLLDTAKLYFNLEPTARSFDTVSIIRVPQGKEPRVFKRMFPNWDDNYWQNQPSYEDMKQLVIDANNEV
B3: spaghetti squash (protein, UniProt P40423 1-174)
chain: MSSRKTAGRRATTKKRAQRATSNVFAMFDQAQIAEFKEAFNMIDQNRDGFVEKEDLHDMLASLGKNPTDDYLDGMMNEAPGPINFTMFLTLFGERLQGTDPEDVIKNAFGCFDEENMGVLPEDRLRELLTTMGDRFTDEDVDEMYREAPIKNGLFDYLEFTRILKHGAKDKDEQ
B4: Kibra (Kbr), Drosophila (protein, UniProt Q9VFG8 1-1288)
chain: MPNLQQTASQSQHHLHPHHLRPQQQQQQHHHHHQQQQQQQHTHHQQQQQHHSDFPLPDGWDIAKDFDGKTYYIDHINKKTTWLDPRDCYTKPQTFEDCVGDELPMGWEESYDPNIGPYYINHLAQSTQLEDPRQEWKTVQEQMLSDYLSAAQDQLENKREMFDVKQQRLLWAQEEYNHLKLAASRSSLCSSSSSMSRHDPELLRADLMLARERVHQLKQELTHITNDISYTERGMNTLYSVGEKINARENGCYDIAEVHAIREEMLKVHKSLVSGEKVREELMRSLVQIKNELGRQQISEENSDLASPFDRVCVASQTDLCGSSGENLNGGARFAEMAKTKWQYAEWRKHIKKLQQQLADHVERIEPGQLESDKDRILLIQEKEKLLNDLNSISLKSRSEEEKRVIHQTRHKLEEDLKEAYEANNTCVANRLRFHEEKQLLLDKLQEALKSTKLLEERLKSFSSESTFSISSGSSLGSLSTASSKSALSFTDIYIDPFAVDSPIDVVDLRRRSQRLFQQHQQQRLHPVHPVLQQQQSAEVTLSPRSSLSMETPPASPMKYNAGADQTPQALKEEPTYANALPAPPAYTAPPPVPISGVRARPYDLDSTVLDCMMLEAKLQKLNMGTPLNLAVAPLSPISEKPSLLDLPQEMLSRSSSTSNTRSVSAAVSNESVAGDSGVFEASRAHLPRKELAQVQIGLKYLKQEGVLVVSLERANNLLALWTASADNSQVYLRAALLPNSLTSIRTKALGDFQKPVFNDTFAVPITLDKLLTKSLQVTVVTMTGQKEEIIGTVQISMAEFNPEDSTLKWYNVLSSKFIPSFESLDIPSTSAAAAAAAVAASNAPNPGNNREESSDESTITSSQTSTLTRNQAPCMELQEQMAAELLGLGPLNEPECSDDDDDDEEEELDDKQLVSDVGLMNSSSMLHAYLQNMKQEFADKETNTDRAYLPEKSRGQSQLMDDRPVKRSQTFTPSEAFSKNRYNCRLNRSDSDSAMHCGVAPHTFQRGAAERRSLRFHSKAPKSVTKLHHTHIPRTSLDLELDLQAQHSKLYFLNDQIAKLQNLKEVLQKACENKDPLVAAWAIENEEFQRLVARADPAKCPEERQLQKLLMKTAKEIHKLRKTKVPKGCPDLVSFKEKITFFTRKGLSVPELPSEFTLPEANPIEEEEEEEDENEFYNSAETAIAINTALVASSNRNKNLSEHPHRATSGAVPKIPAPVVTPAATPAATPAATPAATSAATPAATPVVSPAAQPDAKPADAPIPVASNDAEQQRFDYVVDRNYGVEV
B5: Yorkie (Yki) (protein, UniProt Q45VV3 1-395)
chain: MLTTMSASSNTNSLIEKEIDDEDMLSPIKSNNLVVRVNQDTDDNLQALFDSVLNPGDAKRPLQLPLRMRKLPNSFFTPPAPSHSRANSADSTYDAGSQSSINIGNKASIVQQPDGQSPIAAIPQLQIQPSPQHSRLAIHHSRARSSPASLQQNYNVRARSDAAAANNPNANPSSQQQPAGPTFPENSAQEFPSGAPASSAIDLDAMNTCMSQDIPMSMQTVHKKQRSYDVISPIQLNRQLGALPPGWEQAKTNDGQIYYLNHTTKSTQWEDPRIQYRQQQQILMAERIKQNDVLQTTKQTTTSTIANNLGPLPDGWEQAVTESGDLYFINHIDRTTSWNDPRMQSGLSVLDCPDNLVSSLQIEDNLCSNLFNDAQAIVNPPSSHKPDDLEWYKIN
B6: Nrv1 (Nervana1), β-subunit of the Na+, K+ ATPase (protein, UniProt Q24046 1-309)
chain: MSKNNGKGAKGEFEFPQPAKKQTFSEMIYNPQEGTFFGRTGKSWSQLLLFYTIFYIVLAALFTICMQGLLSTISDTEPKWKLQDSLIGTNPGLGFRPLSEQTERGSVIAFDGKKPAESDYWIELIDDFLRDYNHTEGRDMKHCGFGQVLEPTDVCVVNTDLFGGCSKANNYGYKTNQPCIFLKLNKIFGWIPEVYDKEEKDMPDDLKKVINETKTEERQQVWVSCNGHLGKDKENFQNIRYFPSQGFPSYYYPFLNQPGYLSPLVAVQFNSPPKGQMLDVECRAWAKNIQYSGSVRDRKGSVTFQILLD
B7: Hts/Add (Hu li tai shao/Adducin) (protein, UniProt Q02645 1-1156)
chain: MTEVEQPPQNGIDPTAGEDDDNSKARPADIEQDMREMERRKRVEAIMGSKLFREELERIVDSARDGGAGASGILQQLSDIVGVPVSRVGSVFKSSNCMVPINDIRGVESMGYAKGEKILRCKLAATFRLLDLYGWTQGLGAQITARLKVDQEYFLVNPYGLLYHEITASALNKVDMQGQIVEQGTTNFGGNKSHFVLHSVVHAARPDIRCAIYIGCSPVVAISSLKTGLLPLTKDACVLGEITTHAYTGLFDEEERNRLVRSLGPNSKVILLTNHGALCCGETIEEAFFAACHIVQACETQLKLLPVGLDNLVLIPEESRKAIYEQSRRPPEDLEKKFAAVAAAEDGAATAEKDAAEAVPKVGSPPKWRVGGAEFEALMRMLDNAGYRTGYIYRHPLIKSDPPKPKNDVELPPAVSSLGYLLEEEELFRQGIWKKGDIRKGGDRSRWLNSPNVYQKVEVLETGTPDPKKITKWVAEGSPTHSTPVRIEDPLQFVPAGTNPREFKRVQQLIKDNRRADKISAGPQSHILEGVTWDEASRLKDATVSQAGDHVVMMGAASKGIIQRGFQHNATVYKAPYAKNPFDNVTDDELNEYKRTVERKKKSVHGEYTDTDFSESEAVLQAGTKKYPQSEPETEHQVIEIQTQQAPVPRQAEVVLSDALVSQLAQKYAFLYSPGQYMYACMKMAPLMHKVYVIHKVEPVSKHNYPPVNDGNMSIHHNESGAGFMAQESSVISSTPVRNALASVSLPEERNHSILGLSSTPYRTISHFGFNCPLITSPTILLHPEHRSIWQRVAEQREKVVSFIDLTTLSLDNRKLLNVVTSTHPTQCQSQSQSFISEKHIQLEVTPPKRKQRVYSATISSGLDDSLDELDSLMSGLAINMPRSREQDSGLYRSYTFLPSNHALPKDTDANNRDQTDRERPEAEQEESFHCAGDSGIGDSTGRRPRLATTSNDSSIQEAEAYTQGKHVKLTLSSSPTPTATQSPATIEILINVSLRNAECVQTVQTHEQEFRAKLERVIDEEIHYISQQLAFKQRQAELHEQQTTSRAPIATPSFTTMHPPAPASSSSMVHRSNSAPELCHTYSYVAVGDLSTKQDQASPQLPAEGEPLNDILSSLEKELERLLNSVVTAHMLHNKAIIHECRARFSQLADGIVSS
B8: Wings up A (WupA) (protein, UniProt P36188 1-269)
chain: MADDEKKAAAPAAAPAAAAKPAAPAAAPAANGKAAPAANGKAAPAAAAAPAGPPKDPNDPKVKAEEAKKAKQAEIERKRAEVRKRMEEASKAKKAKKGFMTPERKKKLRLLLRKKAAEELKKEQERKAAERRRIIEERCGSPRNLSDASEGELQEICEEYYERMYICEGQKWDLEYEVRKKDWEINDLNAQVNDLRGKFVKPALKKVSKYENKFAKLQKKAAEFNFRNQLKVVKKKEFTLEEEEKEKKPDWSKGKPGDAKVKEEVEAEA

These binders were tested against C-terminal GFP-tagged version of full-length Dg (dystroglycan) (Drosophila) (assay: affinity purification with mass spectrometry; Dg::GFP captured on GFP-Trap beads from whole lysates of 1-week-old flies (Mhc-Gal4/UAS-Dg::GFP) in RIPA buffer, overnight at 4 °C, six washes; control Mhc-Gal4/+; three biological replicates; hits: significant ≥ 2-fold increase over control).

binding, binds:
B1
B2
B3
B4
B5
B6
B7
B8
